Assay results from paper PMC7072789.
These are yes or no findings as the source states them, for the method shown. In cells and extracts the contact can be indirect. Here binding means that the protein was enriched with, or labelled near, the bait; the list need not be complete. Sequences can lack the tags named with a protein.

By UniProt entry, the sequences of proteins in these tests, tags left out. Residues count along the entry.
UniProt P27824, residues 21-592: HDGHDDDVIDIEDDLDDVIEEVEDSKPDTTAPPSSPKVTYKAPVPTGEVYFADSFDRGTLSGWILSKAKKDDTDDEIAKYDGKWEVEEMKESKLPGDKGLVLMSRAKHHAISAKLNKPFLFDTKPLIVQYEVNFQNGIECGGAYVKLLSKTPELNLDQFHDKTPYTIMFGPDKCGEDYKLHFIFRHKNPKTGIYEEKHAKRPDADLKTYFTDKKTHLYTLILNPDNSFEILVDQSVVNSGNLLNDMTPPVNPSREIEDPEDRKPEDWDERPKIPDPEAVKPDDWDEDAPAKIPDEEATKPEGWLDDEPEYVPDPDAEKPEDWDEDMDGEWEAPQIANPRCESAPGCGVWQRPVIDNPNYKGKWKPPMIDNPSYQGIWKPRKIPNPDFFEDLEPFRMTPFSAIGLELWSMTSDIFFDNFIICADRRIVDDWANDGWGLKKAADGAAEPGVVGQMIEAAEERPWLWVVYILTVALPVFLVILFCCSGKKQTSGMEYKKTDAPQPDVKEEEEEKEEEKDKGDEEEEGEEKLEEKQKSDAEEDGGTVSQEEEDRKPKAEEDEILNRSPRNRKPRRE

Target: T1, TRAPα fused with HA (TRAPα-HA) (UniProt P43307)
T1 sequence: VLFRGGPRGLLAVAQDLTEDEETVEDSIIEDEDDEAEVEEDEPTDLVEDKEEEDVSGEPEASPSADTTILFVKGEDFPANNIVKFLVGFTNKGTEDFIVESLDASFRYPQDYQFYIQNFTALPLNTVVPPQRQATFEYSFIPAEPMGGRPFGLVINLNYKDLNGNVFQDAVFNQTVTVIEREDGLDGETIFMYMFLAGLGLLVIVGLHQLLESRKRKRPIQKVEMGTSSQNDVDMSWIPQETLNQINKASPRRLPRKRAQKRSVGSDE
Assay: affinity purification with mass spectrometry; TRAPα-HA captured on anti-HA magnetic beads from microsomes solubilized in 2% digitonin (50 mM HEPES pH 7.4, 150 mM NaCl, 5 mM MgAc, 1 mM DTT), washed with 0.2% digitonin, 4 °C; differentially recovered gel band identified by MS/MS

calnexin (CANX), endogenous (from UniProt P27824 21-592)
binding: binds
